Read-outs that look alike come from different tables or passages of the source. No constants are given. Whether binding was seen depends on the method and setting. In cells and extracts the contact can be indirect. These calls come from enrichment with a bait or labelling near it, and not all partners need be listed. Values belong to the binder of their own block, whether it stands above or below them.
What was measured:
Assay in all cases: proximity labelling
BirA*-BaxS184V = BirA*-BaxS184V (UniProt Q07812)
BirA*-Bcl-2 [1] = biological target: BirA*-Bcl-2 (UniProt P10415)
BirA*-Bcl-2 [2] = biological target: BirA*-Bcl-2 (UniProt P10415); remark: listed apart in the source
BirA*-Bcl-XL [3] = biological target: BirA*-Bcl-XL (UniProt Q07817)
BirA*-Bcl-XL [4] = biological target: BirA*-Bcl-XL (UniProt Q07817); remark: listed apart in the source
BirA*-Bcl-XL, Q07817 [5] = conditions: remark: other sources report otherwise
BirA*-Bcl-XL, Q07817 [6] = conditions: remark: other sources report otherwise; remark: listed apart in the source
BirA*-Bcl-XL [7] = biological target: BirA*-Bcl-XL (UniProt Q07817); remark: listed apart in the source

Sequences of proteins named here, by UniProt entry; tags and fusion partners are left off. A change or cut given only in a name is not applied to a line headed by its entry.
UniProt Q07812: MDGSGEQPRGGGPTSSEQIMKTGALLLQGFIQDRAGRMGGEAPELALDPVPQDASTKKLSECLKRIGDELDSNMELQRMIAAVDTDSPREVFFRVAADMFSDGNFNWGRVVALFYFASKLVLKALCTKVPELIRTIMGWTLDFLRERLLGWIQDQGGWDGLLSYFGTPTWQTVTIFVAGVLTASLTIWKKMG
UniProt P10415: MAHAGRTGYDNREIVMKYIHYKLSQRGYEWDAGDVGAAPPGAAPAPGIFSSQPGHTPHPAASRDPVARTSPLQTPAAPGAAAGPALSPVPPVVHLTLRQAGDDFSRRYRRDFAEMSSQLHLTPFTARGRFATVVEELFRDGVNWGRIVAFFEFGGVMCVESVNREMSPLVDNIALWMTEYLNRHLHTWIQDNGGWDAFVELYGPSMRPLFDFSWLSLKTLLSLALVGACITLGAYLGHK
UniProt Q07817: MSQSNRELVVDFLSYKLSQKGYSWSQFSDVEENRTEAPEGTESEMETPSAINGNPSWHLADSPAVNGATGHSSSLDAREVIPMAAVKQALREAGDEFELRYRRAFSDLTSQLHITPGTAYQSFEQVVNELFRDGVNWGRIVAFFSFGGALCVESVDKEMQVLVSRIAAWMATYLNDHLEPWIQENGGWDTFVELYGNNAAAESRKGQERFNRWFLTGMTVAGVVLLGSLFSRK

B2: CLCC1 (protein, UniProt Q96S66 19-551)
chain: HDDDWIDPTDMLNYDAASGTMRKSQAKYGISGEKDVSPDLSCADEISECYHKLDSLTYKIDECEKKKREDYESQSNPVFRRYLNKILIEAGKLGLPDENKGDMHYDAEIILKRETLLEIQKFLNGEDWKPGALDDALSDILINFKFHDFETWKWRFEDSFGVDPYNVLMVLLCLLCIVVLVATELWTYVRWYTQLRRVLIISFLFSLGWNWMYLYKLAFAQHQAEVAKMEPLNNVCAKKMDWTGSIWEWFRSSWTYKDDPCQKYYELLLVNPIWLVPPTKALAVTFTTFVTEPLKHIGKGTGEFIKALMKEIPALLHLPVLIIMALAILSFCYGAGKSVHVLRHIGGPESEPPQALRPRDRRRQEEIDYRPDGGAGDADFHYRGQMGPTEQGPYAKTYEGRREILRERDVDLRFQTGNKSPEVLRAFDVPDAEAREHPTVVPSHKSPVLDTKPKETGGILGEGTPKESSTESSQSAKPVSGQDTSGNTEGSPAAEKAQLKSEAAGSPDQGSTYSPARGVAGPRGQDPVSSPCG
binding (BirA*-Bcl-2 [2]): binds
binding (BirA*-Bcl-2 [1]): binds

B4: MAVS, Q7Z434 1-540 (protein)
chain: MPFAEDKTYKYICRNFSNFCNVDVVEILPYLPCLTARDQDRLRATCTLSGNRDTLWHLFNTLQRRPGWVEYFIAALRGCELVDLADEVASVYQSYQPRTSDRPPDPLEPPSLPAERPGPPTPAAAHSIPYNSCREKEPSYPMPVQETQAPESPGENSEQALQTLSPRAIPRNPDGGPLESSSDLAALSPLTSSGHQEQDTELGSTHTAGATSSLTPSRGPVSPSVSFQPLARSTPRASRLPGPTGSVVSTGTSFSSSSPGLASAGAAEGKQGAESDQAEPIICSSGAEAPANSLPSKVPTTLMPVNTVALKVPANPASVSTVPSKLPTSSKPPGAVPSNALTNPAPSKLPINSTRAGMVPSKVPTSMVLTKVSASTVPTDGSSRNEETPAAPTPAGATGGSSAWLDSSSENRGLGSELSKPGVLASQVDSPFSGCFEDLAISASTSLGMGPCHGPEENEYKSEGTFGIHVAENPSIQLLEGNPGPPADPDGGPRPQADRKFQEREVPCHRPSPGALWLQVAVTGVLVVTLLVVLYRRRLH
binding (BirA*-Bcl-XL, Q07817 [5]): binds
binding (BirA*-Bcl-XL, Q07817 [6]): binds

B6: BANF1 (protein, UniProt O75531 1-89)
chain: MTTSQKHRDFVAEPMGEKPVGSLAGIGEVLGKKLEERGFDKAYVVLGQFLVLKKDEDLFREWLKDTCGANAKQSRDCFGCLREWCDAFL
binding (BirA*-Bcl-2 [2]): binds
binding (BirA*-Bcl-2 [1]): binds

B8: Hexokinase 1 (protein, UniProt P19367 1-917)
chain: MIAAQLLAYYFTELKDDQVKKIDKYLYAMRLSDETLIDIMTRFRKEMKNGLSRDFNPTATVKMLPTFVRSIPDGSEKGDFIALDLGGSSFRILRVQVNHEKNQNVHMESEVYDTPENIVHGSGSQLFDHVAECLGDFMEKRKIKDKKLPVGFTFSFPCQQSKIDEAILITWTKRFKASGVEGADVVKLLNKAIKKRGDYDANIVAVVNDTVGTMMTCGYDDQHCEVGLIIGTGTNACYMEELRHIDLVEGDEGRMCINTEWGAFGDDGSLEDIRTEFDREIDRGSLNPGKQLFEKMVSGMYLGELVRLILVKMAKEGLLFEGRITPELLTRGKFNTSDVSAIEKNKEGLHNAKEILTRLGVEPSDDDCVSVQHVCTIVSFRSANLVAATLGAILNRLRDNKGTPRLRTTVGVDGSLYKTHPQYSRRFHKTLRRLVPDSDVRFLLSESGSGKGAAMVTAVAYRLAEQHRQIEETLAHFHLTKDMLLEVKKRMRAEMELGLRKQTHNNAVVKMLPSFVRRTPDGTENGDFLALDLGGTNFRVLLVKIRSGKKRTVEMHNKIYAIPIEIMQGTGEELFDHIVSCISDFLDYMGIKGPRMPLGFTFSFPCQQTSLDAGILITWTKGFKATDCVGHDVVTLLRDAIKRREEFDLDVVAVVNDTVGTMMTCAYEEPTCEVGLIVGTGSNACYMEEMKNVEMVEGDQGQMCINMEWGAFGDNGCLDDIRTHYDRLVDEYSLNAGKQRYEKMISGMYLGEIVRNILIDFTKKGFLFRGQISETLKTRGIFETKFLSQIESDRLALLQVRAILQQLGLNSTCDDSILVKTVCGVVSRRAAQLCGAGMAAVVDKIRENRGLDRLNVTVGVDGTLYKLHPHFSRIMHQTVKELSPKCNVSFLLSEDGSGKGAALITAVGVRLRTEASS
binding (BirA*-Bcl-XL [7]): binds

Now from value to binder:

binding (BirA*-BaxS184V): binds
binding (BirA*-Bcl-2 [1]): binds
B1: PTPN1 (protein, UniProt P18031 1-435)
chain: MEMEKEFEQIDKSGSWAAIYQDIRHEASDFPCRVAKLPKNKNRNRYRDVSPFDHSRIKLHQEDNDYINASLIKMEEAQRSYILTQGPLPNTCGHFWEMVWEQKSRGVVMLNRVMEKGSLKCAQYWPQKEEKEMIFEDTNLKLTLISEDIKSYYTVRQLELENLTTQETREILHFHYTTWPDFGVPESPASFLNFLFKVRESGSLSPEHGPVVVHCSAGIGRSGTFCLADTCLLLMDKRKDPSSVDIKKVLLEMRKFRMGLIQTADQLRFSYLAVIEGAKFIMGDSSVQDQWKELSHEDLEPPPEHIPPPPRPPKRILEPHNGKCREFFPNHQWVKEETQEDKDCPIKEEKGSPLNAAPYGIESMSQDTEVRSRVVGGSLRGAQAASPAKGEPSLPEKDEDHALSYWKPFLVNMCVATVLTAGAYLCYRFLFNSNT

binding (BirA*-BaxS184V): binds
binding (BirA*-Bcl-XL [3]): binds
binding (BirA*-Bcl-XL [4]): binds
binding (BirA*-Bcl-2 [1]): binds
B3: YKT6 (protein, UniProt O15498 1-198)
chain: MKLYSLSVLYKGEAKVVLLKAAYDVSSFSFFQRSSVQEFMTFTSQLIVERSSKGTRASVKEQDYLCHVYVRNDSLAGVVIADNEYPSRVAFTLLEKVLDEFSKQVDRIDWPVGSPATIHYPALDGHLSRYQNPREADPMTKVQAELDETKIILHNTMESLLERGEKLDDLVSKSEVLGTQSKAFYKTARKQNSCCAIM

binding (BirA*-BaxS184V): binds
binding (BirA*-Bcl-XL [3]): binds
B5: OCIAD1 (protein, UniProt Q9NX40 1-245)
chain: MNGRADFREPNAEVPRPIPHIGPDYIPTEEERRVFAECNDESFWFRSVPLAATSMLITQGLISKGILSSHPKYGSIPKLILACIMGYFAGKLSYVKTCQEKFKKLENSPLGEALRSGQARRSSPPGHYYQKSKYDSSVSGQSSFVTSPAADNIEMLPHYEPIPFSSSMNESAPTGITDHIVQGPDPNLEESPKRKNITYEELRNKNRESYEVSLTQKTDPSVRPMHERVPKKEVKVNKYGDTWDE

binding (BirA*-Bcl-XL [3]): binds
binding (BirA*-Bcl-XL [7]): binds
B7: MFF (protein, UniProt Q9GZY8 1-342)
chain: MSKGTSSDTSLGRVSRAAFPSPTAAEMAEISRIQYEMEYTEGISQRMRVPEKLKVAPPNADLEQGFQEGVPNASVIMQVPERIVVAGNNEDVSFSRPADLDLIQSTPFKPLALKTPPRVLTLSERPLDFLDLERPPTTPQNEEIRAVGRLKRERSMSENAVRQNGQLVRNDSLWHRSDSAPRNKISRFQAPISAPEYTVTPSPQQARVCPPHMLPEDGANLSSARGILSLIQSSTRRAYQQILDVLDENRRPVLRGGSAAATSNPHHDNVRYGISNIDTTIEGTSDDLTVVDAASLRRQIIKLNRRLQLLEEENKERAKREMVMYSITVAFWLLNSWLWFRR
